The source of these data is PubChem BioAssay AID2685 (National Center for Advancing Translational Sciences (NCATS), 2010).

A short description of this assay: qHTS Assay for Lipid Storage Modulators in Drosophila S3 Cells.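 On cell number change: cells counted by Cell Tracker Red CMTPX staining in the red channel.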 As to conditions: BODIPY lipid droplet fluorescence, 18-24 h; for cell number change: measured here: cell count max response, cells fed with added oleic acid. In short, it runs like this:
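Drosophila S3 cells got compounds at several concentrations plus oleic acid (400 uM solution). Laser-scanning cytometry with 488 nm excitation read lipid droplets at 500-530 nm and cells at 575-640 nm. Percent activity was relative to 20 uM Triacsin C.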
On the technique in general: qHTS replaces the single test concentration by a dilution series.

[1] abbreviates: measured here: lipid fluorescence (Fed channel) AC50, cells fed with added oleic acid.
Where [2] appears, read: measured here: cell number channel AC50, cells fed with added oleic acid.

The other results are listed elsewhere or left out. These are further read-outs of the screen, such as a control signal, another cell line or another target. No call is given for them. Most of these compounds were active or inconclusive in the main read-out, so they are no random draw. Potencies come from curve fits of mixed quality, noted in brackets.

With `Cc1cc(NC(=O)COC(=O)c2cc(S(=O)(=O)N3CCOCC3)ccc2N2CCCCC2)no1`, the cell number change turned out to be 4.96%. Further, the AC50 – broadly, the concentration at which the activity in the assay is half-maximal – under setting [1] was 8.2 µM [rising, partial curve]. As to `Cc1ccc(NC(=O)c2cc(N3C(=O)C=CC3=O)ccc2N2CCOCC2)cc1`, the cell number change was -64%. Under setting [2], the AC50 was 1.84 µM [falling, full curve]. Besides, under setting [1], the half-maximal activity concentration (AC50) is 3.66 µM [falling, full curve, poor fit]. In the case of `O=C(NC1CC1)C1CCCN(C(=O)Nc2ccc(F)cc2)C1` (stereo not given), the cell number change was -12%. Moreover, under setting [2], the AC50 is 0.58 µM [rising, partial curve, poor fit].

Consider `O=S(=O)(NCCC1=CCCCC1)c1cccc(S(=O)(=O)N2CCOCC2)c1`, for which the half-maximal activity concentration (AC50) under setting [1] was 29.1 µM [falling, single point]. On to `COc1ccc(N(C(=O)c2snc(C(N)=O)c2N)C(C(=O)NC2CCCC2)c2ccc(OC)c(OC)c2)cc1` (stereo not given), for which the cell number change was determined as 22.4%. Take `O=c1[nH][nH]cc1C=Nc1ccc(Cl)cc1Cl`: the cell number change is -43.6%. Under setting [2], the AC50 was 29.1 µM [falling, single point]. For the same molecule, under setting [1], the AC50 is 29.1 µM [falling, single point].

Take `O=C(Cn1c(=O)n(-c2cccc(Cl)c2)c(=O)n1CC(=O)N1CCCCC1)N1CCCCC1`: the cell number change was -187%. Moreover, the AC50 under setting [2] is 23.1 µM [falling, partial curve]. As for `COC(=O)c1nn(-c2ccc3c(c2)OCO3)cc1O`, the cell number change was -8.39%. On to `COc1cccc(NC(=O)CN2C(=O)NC3(CCCc4ccccc43)C2=O)c1` (stereo not given), for which the cell number change was -4.01%. For the same molecule, the AC50 under setting [1] is 6.51 µM [rising, single point]. `Cc1ccc2nc(NC(=S)NC(=O)c3cccs3)sc2c1`: the cell number change is -14.2%. For the molecule `CCOC(=O)c1cc(-c2ccc(C)o2)nn1CCC#N`, the cell number change came to 16.6%. In addition, the AC50 under setting [1] was 18.4 µM [rising, single point]. Turning to `CCOP(=O)(OCC)c1nc(-c2cccc3ccccc23)oc1NCc1ccc(OC)cc1`, the cell number change is -37.6%. Further, the AC50 under setting [1] was 0.00461 µM [falling, full curve, poor fit]. With `O=S(=O)(NN=C1CCCCCC1)c1ccccc1`, the cell number change was determined as 14.7%. The AC50 under setting [1] is 0.0116 µM [falling, full curve, poor fit]. Take `CCOc1cc(NC(=S)NCCCN2CCOCC2)c(OCC)cc1NC(=O)c1cccc(F)c1`: the cell number change is 22.9%. The AC50 under setting [1] was 23.1 µM [rising, single point]. Take `Cc1ccc(C(=O)Nc2cccc(N(C)S(C)(=O)=O)c2)cc1S(=O)(=O)Nc1ccccc1`: the cell number change came out at 111%.

Turning to `COc1ccc(CN(CC(=O)NC(C)C)C(=O)CCC(=O)Nc2nccs2)cc1`, the cell number change was -5.13%. Take `Cc1ccccc1NC(=S)c1ccc2ccccc2n1`: the cell number change was -9.85%. Regarding `CCOC(=O)c1c(C)[nH]c(C)c1C(=O)COC(=O)/C=C/c1ccc(Cl)cc1`, the cell number change came to 11.6%. Further, under setting [1], the half-maximal activity concentration (AC50) is 0.92 µM [rising, full curve, poor fit]. In the case of `C=CCOc1nc(N(C)C)nc(N(C)C)n1`, the cell number change came out at 33.1%. Also, the AC50 under setting [2] is 29.1 µM [rising, single point]. Besides, the AC50 under setting [1] was 5.17 µM [rising, single point]. `CCC(C)N1CC(C(=O)O)CC1=O` (stereo not given): the cell number change is -34.6%. Under setting [2], the AC50 was 16.4 µM [falling, single point]. Further, the AC50 under setting [1] is 29.1 µM [falling, single point]. As for `Cc1cc(-n2c(C)cc(C(=O)CSc3nc(N)cc(=O)[nH]3)c2C)no1`, the cell number change is -68.4%. For the same molecule, the AC50 under setting [2] was 20.6 µM [falling, single point]. The AC50 under setting [1] was 20.6 µM [falling, partial curve].

As to `O=C(COC(=O)COc1ccccc1)NC12CC3CC(CC(C3)C1)C2`, the cell number change was -32.9%. Further, under setting [2], the AC50 is 0.103 µM [falling, full curve, poor fit]. As to `NNC(=O)C(=O)NCCCN1CCOCC1`, the cell number change is -50.2%. Moreover, the AC50 under setting [2] was 25.9 µM [falling, single point]. Moreover, under setting [1], the AC50 is 0.116 µM [falling, full curve, poor fit].

Regarding `CCOC(=O)c1c(C)[nH]c(C(=O)OCC(=O)Nc2ccc(OC)c(Cl)c2)c1C`, the cell number change was found to be 28.7%. The AC50 under setting [1] was 3.66 µM [rising, partial curve]. For the molecule `C=CCn1c(N)cc(=O)nc1SC(CC)C(=O)Nc1ccc(C(C)=O)cc1` (stereo not given), the cell number change worked out at 32.1%. Also, under setting [2], the AC50 was 29.1 µM [rising, single point]. For `CN(C)C(=O)N1CCC(C(=O)NCc2ccccc2Cl)CC1`, under setting [2], the AC50 was 6.51 µM [falling, single point]. On to `c1ccc(CNCc2ccco2)cc1`, for which the cell number change is -3.87%. Further, under setting [1], the AC50 is 29.1 µM [rising, single point]. With `N#Cc1cnn(-c2nc(SCc3ccccc3)nc3sc4c(c23)CCCC4)c1N`, the cell number change is -25.6%. Still for that read-out and setting: under `COc1ccccc1N1C(=O)c2ccccc2NC1c1cc(OC)c(OC)c(OC)c1` (stereo not given) stands 6.35%.

On to `Nc1ccc(Sc2nnnn2-c2ccccc2)c(Cl)c1`, for which the cell number change was -4.92%. Besides, the AC50 under setting [1] was 3.66 µM [rising, full curve]. Regarding `O=C(CCn1cnc2ccccc21)N/N=C/C=C/c1ccccc1`, the cell number change stood at 11.5%. Moreover, the AC50 under setting [1] was 2.06 µM [rising, partial curve, poor fit]. Consider `Cc1ccc(C(=O)NCC(=O)OCC(=O)NC(C)C2CC3CCC2C3)cc1` (stereo not given), for which the cell number change was found to be 119%. Further, the concentration at half-maximal activity (AC50) under setting [1] is 2.91 µM [rising, single point]. Take `COC(=O)c1ccc(NC(=O)CN(c2ccc(C)cc2)S(=O)(=O)c2c(C)nn(C)c2C)cc1`: the cell number change was found to be 2.26%. Further, the AC50 under setting [1] is 0.58 µM [rising, single point]. Regarding `CCOc1ccc(CN2CCNC(=O)C2CC(=O)NCc2csc(C(C)C)n2)cc1` (stereo not given), the cell number change was -13%. Besides, under setting [1], the AC50 was 29.1 µM [falling, single point]. As for `O=C(c1ccccc1S(=O)(=O)NCC(O)COc1ccc([N+](=O)[O-])cc1)N1CCCCC1` (stereo not given), the cell number change is -32%. Besides, under setting [2], the half-maximal activity concentration (AC50) was 32.6 µM [falling, single point].

Regarding `N=C1/C(=C\c2ccc(Br)o2)C(=O)N=C2SC(CC(=O)N3CCCCC3)=NN12`, the cell number change was -3.63%. Also, the half-maximal activity concentration (AC50) under setting [1] is 0.13 µM [falling, partial curve, poor fit]. With `CCc1nnc(NS(=O)(=O)c2ccc(NC(=O)c3ccc(Br)cc3)cc2)s1`, the cell number change was found to be 9.68%. Also, under setting [1], the AC50 was 29.1 µM [rising, single point]. Take `CC(C)[C@H](Nc1ncnc2c1oc1ccccc12)C(=O)O`: the cell number change was -2.67%. As for `O=C(CN1CCOCC1)NCc1ccc(F)cc1`, the cell number change worked out at 16.1%. Also, the AC50 under setting [1] was 11.6 µM [rising, partial curve, poor fit]. Turning to `Cc1cc(C)n(-c2ccc(NC(=O)C3CCCCN3C(=O)c3cccs3)cc2)n1` (stereo not given), the cell number change worked out at 0.647%. Moreover, the concentration at half-maximal activity (AC50) under setting [1] was 0.0366 µM [falling, full curve, poor fit].
